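A cell-based FRET test of anthrax lethal toxin entry, tracked through the 460 nm emission signal; the cell line is not named here. Each compound was tested as a concentration series from about 0.0005 to 40 µM. The number is the fitted AC50 of the 460 nm signal alone; lower values mean a more potent effect. A falling signal goes with compounds filed as inhibitors or cytotoxic, a rising one with activators or fluorescent compounds (inferred from the filed classes).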

Values are in µM. Common to all entries: measured here: 460 nm channel. Part of the compounds only, not a random draw; the main read-out is not listed here. Potencies fitted to partial, single-point or poorly fitting curves are rough. The first word of each remark tells which way the curve ran; it can be opposite to the aim of the assay.

SMILES | AC50 (µM) | curve
O=C(COC(=O)c1ccco1)NCc1ccco1 | 31.62 | falling, single point
Cc1cc(N2CCCN(C)CC2)nc2cc(Cl)ccc12 | 10 | falling, partial curve
C=C[C@@H]1C[C@@]1(C)[C@@H](NP(=O)(c1ccccc1)c1ccccc1)c1ccccc1 | 31.62 | falling, single point
CNCCC=C1c2ccccc2CCc2ccccc21 | 0.1 | falling, full curve, poor fit
COc1ccccc1CNCCCCCCNCCCCCCCCNCCCCCCNCc1ccccc1OC | 12.59 | rising, single point
COc1ccc(C(=O)NCCNC(C)=O)cc1S(=O)(=O)NCc1ccc(Cl)cc1 | 0.003981 | falling, full curve
CCC(C)(C)n1nnnc1C(c1cccnc1)N1CCCc2ccccc21 (stereo unspecified) | 0.1259 | falling, full curve, poor fit
O=C(CN(C(=O)CCNC(=O)c1ccco1)c1ccccc1)NC1CCCC1 | 31.62 | rising, single point
COc1ccc(-n2c(C)nc3c(cnn3-c3ccc(C)c(C)c3)c2=O)cc1 | 15.85 | falling, single point
Cc1cc(NC(=O)Nc2ccc3c(ccn3C)c2)sn1 | 15.85 | falling, partial curve, poor fit
Cc1cc(NC(=O)CSc2c3c(nc4ccccc24)CCC3)no1 | 12.59 | falling, partial curve
COc1ccc(OC)c2c(=S)c3ccccc3[nH]c12 | 15.85 | falling, partial curve
Cc1ccc(O)c(C(=O)CC(=O)c2cccc(F)c2)c1 | 31.62 | falling, single point
CCn1c2c(c3cc(Cl)ccc31)CCCC2=O | 15.85 | falling, single point
OC12CCCCC1C(c1ccc3c(c1)OCO3)N(Cc1cccc(F)c1)CC2 (stereo unspecified) | 3.162 | rising, single point
Cc1ccc(Nc2nc(N)nc(CN3CCN(C)CC3)n2)cc1 | 0.02512 | falling, full curve, poor fit
C=C(C)COc1ccc(-c2[nH]ncc2-c2ccccc2OC)c(O)c1 | 31.62 | falling, single point
CN(C)CCCN1c2ccccc2Sc2ccccc21 | 15.85 | falling, partial curve
CCCCCCC(C)(C)c1ccc([C@@H]2C[C@H](O)CC[C@@H]2CCCO)c(O)c1 | 15.85 | falling, partial curve
CCCOC(=O)c1cc(=O)[nH]c2ccccc12 | 5.012 | rising, single point
CC(C(=O)NCc1ccco1)n1nc(-c2ccccc2)c2cc(Cl)ccc21 (stereo unspecified) | 5.012 | falling, single point
Cc1ccc(-n2c(SCC(=O)OC(C)C)nnc2-c2ccccn2)cc1 | 3.162 | rising, single point
COc1ccc2[nH]cc(CCNc3nc(-c4cccc(C#N)c4)nc4ccccc34)c2c1 | 10 | falling, partial curve
COCCn1c(N)c(C(=O)NCc2cccs2)c2nc3ccccc3nc21 | 10 | rising, partial curve
CN1CCN(c2ncc3nc(-c4ccccc4)c(=O)n(C4CC4)c3n2)CC1 | 12.59 | rising, partial curve
Nc1ncn([C@@H]2O[C@H](CO)[C@@H](O)[C@H]2O)c(=O)n1 | 3.981 | rising, single point
CCCCn1cnc2cc(NCc3cccc(OC)c3O)ccc21 | 1 | rising, partial curve, poor fit
COc1ccc(C[C@H]2NC[C@H](O)[C@@H]2OC(C)=O)cc1 | 0.05012 | falling, full curve
Cc1cccc2cc(COC(=O)C3CCCCC3)c(=O)[nH]c12 | 10 | rising, single point
COC(=O)[C@H](Cc1ccccc1)NC(=O)NCc1ccc(S(N)(=O)=O)cc1 | 0.1995 | falling, full curve
CC(C)[C@H](CO)Nc1nc(Nc2cccc(Cl)c2)c2ncn(C(C)C)c2n1 | 12.59 | falling, partial curve
O=c1c(-c2cc(F)cc(F)c2)nc2cnc(N3CCOCC3)nc2n1C1CC1 | 5.012 | rising, partial curve
CCOC(=O)c1ccc(NS(=O)(=O)c2cc(-c3nnnn3C(C)C)ccc2OC)cc1 | 0.7943 | falling, single point
COc1cccc2c(=O)n(CC(=O)N3CCCCCC3)ccc12 | 0.7943 | rising, full curve
Cc1nc2cnc(N3CCNCC3)nc2n(C)c1=O | 0.02512 | falling, full curve, poor fit
CCn1c2ccccc2c2nnc(SCc3ccccc3)nc21 | 2.512 | falling, partial curve
CCCCc1cc(=O)oc2c(CN3CCCC3)c(O)c(Cl)cc12 | 25.12 | rising, single point
Cc1nc(=O)c(-c2ccccc2)c(C)n1CCCO | 0.00631 | falling, full curve, poor fit
CCN(CC)CC[n+]1ccc2c(C)c3[nH]c4ccccc4c3c(C)c2c1 | 3.162 | falling, single point
C[C@@H](C(=O)O)c1ccc(C(=O)c2ccccc2)s1 | 0.1585 | falling, partial curve, poor fit
Cc1ccc2[nH]c(=O)c(CN(Cc3cccs3)Cc3nnnn3Cc3ccccc3)cc2c1 | 0.1585 | falling, partial curve, poor fit
COc1cc(CNC(=O)CCCC/C=C\C(C)C)ccc1O | 2.512 | falling, full curve
O=C(CSc1nnc(-c2c[nH]c3ccccc23)o1)N1c2ccccc2CCc2ccccc21 | 10 | falling, partial curve
O=C(CSc1nc2ccccc2c(=O)n1CCCC(=O)N1CCCC1)NCc1ccco1 | 6.31 | rising, partial curve
CCOC(=O)OCC1OC(C#Cc2ccccc2)C=CC1OC(=O)OCC (stereo unspecified) | 5.012 | rising, single point
COc1ccc(N=C(N(C)C)P(=O)(N(C)C)N(C)C)cc1 | 5.012 | rising, single point
COc1cc(C2NC(=O)NC(C)=C2C(=O)OC2CCCCC2)cc(Br)c1O (stereo unspecified) | 12.59 | falling, single point

Some entries from above, unchanged:

SMILES	AC50 (µM)	curve
Cc1cc(NC(=O)Nc2ccc3c(ccn3C)c2)sn1	15.85	falling, partial curve, poor fit
COC(=O)[C@H](Cc1ccccc1)NC(=O)NCc1ccc(S(N)(=O)=O)cc1	0.1995	falling, full curve
CCCOC(=O)c1cc(=O)[nH]c2ccccc12	5.012	rising, single point
O=C(CSc1nnc(-c2c[nH]c3ccccc23)o1)N1c2ccccc2CCc2ccccc21	10	falling, partial curve

Source: PubChem BioAssay AID912 (NCATS, 2007).